Hit rate of the full screen: of about 330,000 compounds, about 1,000 (0.3%) were called active. The shares of active, inactive and inconclusive entries below differ from those in the screen. Calls follow the shape of the dose curve; as a rule, active = well fitted inhibition curve with a large enough effect; inconclusive = small, poorly fitted or top-dose-only effect; inactive = no such curve, though single readings can be large or run the other way; tested in mouse RAW 264.7 cells. Where the call is inconclusive, the potency comes from a doubtful curve fit.
Test: qHTS for Inhibitors of Cell Surface uPA Generation; also: nearly all actives have a fitted effect of over 55% in size
Conditions: cell surface uPA generation assay; series mostly up to 38.3 µM
Outline: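 RAW 264.7 cells, 4000/well, given compound (1:5 dilutions, up to 38.3 uM final) and incubated 24 h at 37 C. Blocked uPA-dependent LF entry keeps ATP high; ATPlite luminescence read, 5 s exposure.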
Potency is read from the fitted curve at half-maximal effect.

SMILES | Potency
CC(=O)c1ccc(-c2cccc([C@H]3[C@@H]4C=CC[C@@H](C)[C@@H]4C(=O)N3Cc3ccccc3)c2)cc1 | inconclusive: 28.2 µM [inhibitor, single point]
CCOCCCNC(=O)C1CCN(Cc2ccc(OCc3ccccc3)c(OC)c2)CC1 | inconclusive: 11.2 µM [inhibitor, partial curve, poor fit]
COc1ccc(NS(=O)(=O)c2c(C)n(C)c(=O)n(C)c2=O)cc1 | inactive
CC(C)(C)c1cc(CCC(=O)Nc2ccncc2)cc(C(C)(C)C)c1O | inconclusive: 28.2 µM [inhibitor, single point]
O=C(Cn1cnc2c(nnn2Cc2ccc(Cl)cc2)c1=O)NCc1ccco1 | inconclusive: 4.47 µM [inhibitor, partial curve, poor fit]
COc1ccc(NC(=O)c2cc(C)on2)cc1 | inconclusive: 11.2 µM [inhibitor, partial curve, poor fit]
Cc1ccn2c(=O)nc(SCC(=O)Nc3cccc4ccccc34)nc2c1 | inactive
CNC1=C([N+](=O)[O-])CC([N+](=O)[O-])=C(N2CCNCC2)N1C | inconclusive: 12.6 µM [inhibitor, single point]
COC1=CC(=O)C[C@@H](C)[C@]12Oc1c(Cl)c(OC)cc(OC)c1C2=O | inconclusive: 7.94 µM [inhibitor, single point]
O=C(/C=C/c1cccc([N+](=O)[O-])c1)c1ccc([N+](=O)[O-])o1 | inconclusive: 1.58 µM [inhibitor, full curve, poor fit]
CCOc1ccccc1-c1cc(-c2n[nH]c(=S)n2CC)c2ccccc2n1 | inactive
COc1cccc(NC(=S)N(Cc2ccc(Cl)cc2)Cc2ccc(C(=O)O)cc2)c1 | inconclusive: 5.01 µM [inhibitor, partial curve, poor fit]
Cc1cc2nnc(SCC(=O)NCc3ccco3)n2c2ccccc12 | inconclusive: 3.16 µM [inhibitor, full curve, poor fit]
CCOc1ccc(OCC)c(NC(=O)C2CCN(S(=O)(=O)c3ccc4c(c3)CC(C)N4C(C)=O)CC2)c1 (stereo not given) | inactive
C/C(CC(=O)NC12CC3CC(CC(C3)C1)C2)=N\NC(=O)c1cnccn1 | inactive
COC(=O)c1ccccc1NC(=O)c1cccnc1 | inconclusive: 25.1 µM [inhibitor, partial curve, poor fit]
Cc1cc2[nH]c(=O)cc(-c3ccccc3)n2n1 | inconclusive: 7.94 µM [inhibitor, partial curve]
Cc1ccc(Nc2nc(-c3cccnc3)cs2)cc1C | inconclusive: 12.6 µM [inhibitor, single point]
O=C(O)c1ccccc1NC(=O)c1cc2ccccc2oc1=O | inconclusive: 14.1 µM [inhibitor, single point]
Cc1nc(CN2CCN(Cc3nc(C(c4ccccc4)c4ccccc4)no3)CC2)cs1 | inactive
Cc1nc([N+](=O)[O-])c(Br)n1Cc1ccccc1 | active: 10 µM
CCN(CC)C(=O)c1oc2ccc(S(=O)(=O)N3CCCCCC3)cc2c1C | inconclusive: 2.51 µM [inhibitor, partial curve, poor fit]
Cn1nnc(NC(=S)NC(=O)c2cccc3ccccc23)n1 | inactive
O=C(NN=C1C2CC3CC1CC(Cl)(C3)C2)c1ccccn1 | inconclusive: 14.1 µM [inhibitor, single point]

An excerpt from above in order of molecular weight, low to high.
SMILES | Potency
COC(=O)c1ccccc1NC(=O)c1cccnc1 | inconclusive: 25.1 µM [inhibitor, partial curve, poor fit]
C/C(CC(=O)NC12CC3CC(CC(C3)C1)C2)=N\NC(=O)c1cnccn1 | inactive
CCOc1ccccc1-c1cc(-c2n[nH]c(=S)n2CC)c2ccccc2n1 | inactive
CC(=O)c1ccc(-c2cccc([C@H]3[C@@H]4C=CC[C@@H](C)[C@@H]4C(=O)N3Cc3ccccc3)c2)cc1 | inconclusive: 28.2 µM [inhibitor, single point]
Cc1nc(CN2CCN(Cc3nc(C(c4ccccc4)c4ccccc4)no3)CC2)cs1 | inactive

(continued)

SMILES | Potency
COc1ccc(N2CCN(C(=O)c3cc(=O)[nH]c4ccccc34)CC2)cc1 | inactive
Oc1ccc(-c2csc(Nc3ccccn3)n2)c(O)c1 | inconclusive: 11.2 µM [inhibitor, partial curve, poor fit]
O=c1c2ccccc2c(C=Nc2ccccc2O)c(O)n1-c1nccs1 | inconclusive: 14.1 µM [inhibitor, partial curve, poor fit]
COC(=O)Cc1ccc(NC(=O)c2ccccc2Cl)cc1 | inactive
Cc1ccc(NC(=O)C[n+]2cc(-c3ccc(C)cc3)n3c2CCC3)cc1 | inactive
Nc1ccc(C(=O)OCC(=O)N2c3ccccc3Sc3ccccc32)cc1[N+](=O)[O-] | inactive
CC(CCc1ccccc1)NC(=O)c1ccccc1F (stereo not given) | inactive
COc1ccc(-c2nsc3c(N4CCCCC4C)ncnc23)cc1 (stereo not given) | active: 3.16 µM
COC(=O)[C@]1(C)N[C@H](c2ccc(-c3ccc(Cl)c(Cl)c3)c(OC)c2)[C@@H]2C(=O)N(C)C(=O)[C@@H]21 | inconclusive: 3.98 µM [inhibitor, partial curve, poor fit]
Clc1ccc(CSc2nnc(CNc3cccc(Cl)c3)o2)cc1 | inactive
O=C(Nc1ccc(N2CCOCC2)cc1)c1ccc([N+](=O)[O-])o1 | inactive
O=C1N[C@@H](c2ccccc2)COC(=O)[C@@H](Cc2ccc(F)cc2)C/C=C\C[C@H]1CC(=O)N(CCO)Cc1ccccc1 | inconclusive: 7.08 µM [inhibitor, single point]
COc1cccc(OCc2nc3ncc(Br)cc3[nH]2)c1 | inconclusive: 0.316 µM [inhibitor, full curve, poor fit]
Cc1cc(C)c(C(=O)OCC(=O)Nc2cccc(S(=O)(=O)N3CCCCC3)c2)c(C)c1 | active: 8.91 µM
O=C(/C=C/c1ccco1)N1CCN(S(=O)(=O)c2cccc([N+](=O)[O-])c2)CC1 | inactive
Cc1ccnc2c1ccc1c(C)ccnc12 | inconclusive: 1 µM [inhibitor, full curve, poor fit]
Cc1ncc(CN2CCCC(C(=O)Nc3ccc(-c4cccc(F)c4)cc3)C2)s1 (stereo not given) | inconclusive: 6.31 µM [inhibitor, partial curve, poor fit]
O=C(Nc1ccccc1N1CCCC1)c1ccc2ccccc2c1 | inconclusive: 1.12 µM [inhibitor, single point]
Cc1ccc(C2(c3noc(CN(C)Cc4cccnc4)n3)CCCC2)cc1 | inactive
O=S(=O)(c1ccc(F)cc1)N1CCN(c2ccc(F)cc2)CC1 | inactive
O=C(Nc1nccs1)C(NS(=O)(=O)c1ccc(Br)s1)c1ccccc1 (stereo not given) | inactive
O=C(O)c1cccc(NC2=C(Cl)C(=O)c3ccccc3C2=O)c1 | inconclusive: 12.6 µM [inhibitor, single point]
COc1cccc(/C=C/C(=O)NNC(=O)c2ccco2)c1OC | active: 2.82 µM
CC(C)C[C@H](NC(=O)c1nc[nH]c1C(=O)NCC(=O)OC(C)(C)C)C(=O)OC(C)(C)C | inconclusive: 1.78 µM [inhibitor, full curve, poor fit]

SMILES | Potency
COc1ccc(-c2ccc(CCC(=O)O)n2-c2ccccc2O)cc1 | inconclusive: 7.94 µM [inhibitor, partial curve, poor fit]
O=C(N/N=C/c1ccccc1O)c1cccc2ccccc12 | inconclusive: 10 µM [inhibitor, partial curve]
O=S(=O)(c1ccc(Cl)c(NC(=S)Nc2ccccc2N2CCOCC2)c1)N1CCOCC1 | inactive
CCOc1ccc(N(CC(=O)N2CCOCC2)S(=O)(=O)c2ccc(F)cc2)cc1 | inactive
Cc1ccccc1-c1nc(CN2CCC(C(=O)N3CCN(c4ccccn4)CC3)CC2)c(C)o1 | inconclusive: 25.1 µM [inhibitor, single point]
CCC(=O)Nc1cccc(C(=O)/C=C/c2cccs2)c1 | inconclusive: 12.6 µM [inhibitor, single point]
COc1ccc(CN=C(C#N)C2=C(O)c3ccccc3C2=O)cc1 | inconclusive: 4.47 µM [inhibitor, partial curve, poor fit]
Nn1c(SCC(=O)N2CCOCC2)nnc1-c1ccco1 | inactive
CCC(C)NS(=O)(=O)c1ccc(NC(=O)c2c(-c3ccccc3)noc2C)cc1 (stereo not given) | inconclusive: 2.51 µM [inhibitor, partial curve, poor fit]
CCCn1c(=N)n(CC(=O)C(C)(C)C)c2ccccc21 | inactive
N=C1/C(=C/c2cccn2CCOc2ccccc2)C(=O)N=C2SC=C(c3ccccc3)N12 | inconclusive: 4.47 µM [inhibitor, full curve, poor fit]
CC(C)c1ccc(CN2CC(C(=O)Nc3ccccc3)CC2=O)cc1 (stereo not given) | inconclusive: 1.26 µM [inhibitor, partial curve, poor fit]
C=CC[C@H](CC(=O)N(CCO)Cc1ccccc1)C(=O)N[C@H](COC(=O)[C@@H](CC=C)CC(=O)OC(C)(C)C)c1ccccc1 | inconclusive: 10 µM [inhibitor, single point]
Clc1ccccc1Nc1nc(-c2ccncc2)nc2ccccc12 | inconclusive: 12.6 µM [inhibitor, single point]
O=C(O)c1ccccc1CC(CCc1ccccc1)C(=O)O (stereo not given) | inactive
COc1ccc(Cl)cc1NC(=O)NCC1CCN(Cc2cc(C)ccc2C)CC1 | inconclusive: 28.2 µM [inhibitor, single point]
CCCN1CCN(CCCNC(=O)c2ccc3nc(N4CCCCC4)sc3c2)CC1 | inconclusive: 12.6 µM [inhibitor, partial curve]
COc1cccc(Oc2ccc(C(F)(F)F)cc2NC(=O)CN2C(=O)NC3(CCCC3)C2=O)c1 | inactive
CN1CCN(S(=O)(=O)c2cccc(C(=O)Oc3ccc(C(C)(C)C)cc3)c2)CC1 | inactive
CCC1(c2ccc(Cl)cc2)NC(=O)N(CC(=O)NC2CCCC(C)C2C)C1=O (stereo not given) | inactive
O=C(c1sc2ccccc2c1Cl)N1CCN(c2ncccn2)CC1 | inactive
CCOc1ccc(-n2c(C)cc(/C=N/N(C)C)c2C)cc1 | inconclusive: 12.6 µM [inhibitor, single point]

A section taken from the entries so far, as a working copy:
SMILES | Potency
Cc1ccccc1-c1nc(CN2CCC(C(=O)N3CCN(c4ccccn4)CC3)CC2)c(C)o1 | inconclusive: 25.1 µM [inhibitor, single point]
CCC(=O)Nc1cccc(C(=O)/C=C/c2cccs2)c1 | inconclusive: 12.6 µM [inhibitor, single point]

Source: PubChem BioAssay AID540303 (National Center for Advancing Translational Sciences (NCATS), 2011)
